Record: PubChem BioAssay AID1259405 (NCATS, 2018)
Here is one part, drawn at random, of about 50,000 deposited reagents. About 4,000 of them (8%) count as active. 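Mouse siRNA library applied to hamster cells; one well for each siRNA.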 A number with no mark means an inactive call. The numbers tell different reagents against one gene apart.

- Assay: 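Silenced genes that increase secreted GFP made by CHO cells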 (primary screen)
- System: Chinese hamster CHO-K1 ovary cells with stable secreted eGFP expression
- Reagents: single siRNA against mouse genes, 0.8 pmol siRNA per well (2 µl of 400 nM stock)
- Timing: 3 days
- Read-out: 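Percent of the per-plate non-targeting control median for intracellular GFP per well by laser scanning cytometry and for cell viability by ATP luminescence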
- Direction: GFP, % of control: higher = more GFP per well, higher productivity; viability (ATP), % of control: higher = more viable cells (more ATP)
- Hit rule: 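Called active when intracellular GFP, relative to negative control, is at or above 120%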

target	siRNA no.	GFP, % of control	viability (ATP), % of control
Tapbp (TAP binding protein)	1	62.9	55.6
Tapbp (TAP binding protein)	2	55.8	41.3
Tapbp (TAP binding protein)	3	55.9	56.2
Loxl1 (lysyl oxidase-like 1)	1	106	62
Loxl1 (lysyl oxidase-like 1)	2	48.4	56.2
Loxl1 (lysyl oxidase-like 1)	3	102	57.2
Cyb561d2 (cytochrome b-561 domain containing 2)	1	59.3	66
Cyb561d2 (cytochrome b-561 domain containing 2)	2	24.7	53.8
Cyb561d2 (cytochrome b-561 domain containing 2)	3	49.8	83.2
Or12j4 (olfactory receptor family 12 subfamily J member 4)	1	73.9	70.9
Or12j4 (olfactory receptor family 12 subfamily J member 4)	2	88.3	93.6
Or12j4 (olfactory receptor family 12 subfamily J member 4)	3	71.8	78.4
Ndrg2 (N-myc downstream regulated gene 2)	1	85.7	50.7
Ndrg2 (N-myc downstream regulated gene 2)	2	76.5	81.2
Ndrg2 (N-myc downstream regulated gene 2)	3	88.1	98.1
Rit2 (Ras-like without CAAX 2)	1	122 (active)	128
Rit2 (Ras-like without CAAX 2)	2	103	81
Rit2 (Ras-like without CAAX 2)	3	71	64.2
Cabyr (calcium binding tyrosine phosphorylation regulated)	1	95.2	59.1
Cabyr (calcium binding tyrosine phosphorylation regulated)	2	81.3	83.6
Cabyr (calcium binding tyrosine phosphorylation regulated)	3	119	111
Napepld (N-acyl phosphatidylethanolamine phospholipase D)	1	171 (active)	95.6
Napepld (N-acyl phosphatidylethanolamine phospholipase D)	2	40	44.9
Napepld (N-acyl phosphatidylethanolamine phospholipase D)	3	58.5	26
Rbm43 (RNA binding motif protein 43)	1	65.5	85.2
Rbm43 (RNA binding motif protein 43)	2	66.3	68.9
Rbm43 (RNA binding motif protein 43)	3	84.4	79.4
Rabgef1 (RAB guanine nucleotide exchange factor (GEF) 1)	1	118	111
Rabgef1 (RAB guanine nucleotide exchange factor (GEF) 1)	2	77.8	76.1
Rabgef1 (RAB guanine nucleotide exchange factor (GEF) 1)	3	39.8	33.8
Lrrc72 (leucine rich repeat containing 72)	1	67.5	86.5
Lrrc72 (leucine rich repeat containing 72)	2	102	56.3
Lrrc72 (leucine rich repeat containing 72)	3	83	56.5
2810407A14Rik (RIKEN cDNA 2810407A14 gene)	1	65.8	68.4
2810407A14Rik (RIKEN cDNA 2810407A14 gene)	2	83.1	110
2810407A14Rik (RIKEN cDNA 2810407A14 gene)	3	58.7	54.7
